Some of the results follow. Further columns of the screen follow, without active or inactive calls. Compounds called inactive in the main read-out are mostly missing here. Potencies come from curve fits of mixed quality, noted in brackets.
Experiment: qHTS Assay for Lipid Storage Modulators in Drosophila S3 Cells;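 as to cell number change: cells counted by Cell Tracker Red CMTPX staining in the red channel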
Settings: BODIPY lipid droplet fluorescence, 18-24 h; for cell number change: measured here: cell count max response, cells fed with added oleic acid
Summary of the method: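 Drosophila S3 cells got compounds at several concentrations plus oleic acid (400 uM solution). Laser-scanning cytometry with 488 nm excitation read lipid droplets at 500-530 nm and cells at 575-640 nm. Percent activity was relative to 20 uM Triacsin C.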

[1] = measured here: lipid fluorescence (Fed channel) AC50, cells fed with added oleic acid
[2] = measured here: cell number channel AC50, cells fed with added oleic acid

| SMILES | cell number change [%] | AC50 [1] | AC50 [2] |
| --- | --- | --- | --- |
| COc1ccc(CCNC(=O)COc2cc(O)c3c(c2)OC(C)(C)CC3=O)cc1OC | -19.9 | 5.8 µM [falling, full curve] | – |
| Cc1ccc2c(COC(=O)c3ccc(C)c(C)c3)cc(=O)oc2c1 | -12.4 | – | 0.116 µM [falling, full curve, poor fit] |
| COc1ccc(CN(C)CC(=O)Nc2cccc(S(N)(=O)=O)c2)c(OC)c1OC | 141 | 20.6 µM [rising, partial curve] | 18.4 µM [rising, partial curve] |
| O=C(CCCc1ccccc1)NCc1ccccn1 | 16.1 | – | 0.651 µM [rising, full curve, poor fit] |
| Cc1ccccc1NC(=O)Cc1nc(COC(=O)CCc2ccccc2)cs1 | -9.5 | 0.231 µM [falling, partial curve, poor fit] | – |
| O=c1c2cccnc2n(-c2ccccc2)n1Cc1c(Cl)cccc1Cl | -9.78 | – | – |
| O=C(CSc1nc2ncc(Cl)cc2[nH]1)NC1CCS(=O)(=O)C1 (stereo not given) | -22.5 | – | – |
| CCOc1ccc(-c2cc(C(=O)N/N=C(\C)c3cccnc3)c3ccccc3n2)c(OCC)c1 | -7.92 | 0.58 µM [rising, single point] | – |
| O=C(Nc1ccc(N2CCN(Cc3ccccc3)CC2)cc1)c1ncn[nH]1 | -0.468 | – | 0.103 µM [falling, single point] |
| O=C(NCc1cccnc1)Nc1ccc(Cl)cc1 | 3.18 | 2.31 µM [rising, partial curve] | – |
| CCOC(=O)CN(C(=O)CSc1nnc(COc2ccc(OC)cc2)n1CC)c1ccccc1 | -17.7 | 29.1 µM [falling, single point] | – |
| CCCCOc1cccc(C(=O)Nc2ccc(S(=O)(=O)Nc3cc(C)on3)cc2)c1 | -28.9 | 5.62 µM [falling, single point] | – |
| COCCCn1c(-c2cccs2)nc2nc3ccccc3nc21 | 15.5 | – | – |
| CN(C)c1nc(N)nc(N(c2ccccc2)c2ccccc2)n1 | 5.74 | 25.9 µM [rising, single point] | – |
| COc1ccc(C(=O)N2CCn3c(C)ccc3C2C)cc1 (stereo not given) | 12.2 | – | – |
| CSc1ccc(CNc2nnnn2C)cc1 | -16 | – | – |
| COc1ccccc1-n1c(=O)[nH]c2c(C(N)=O)nc(C3CCCCC3)nc21 | – | – | 6.51 µM [falling, single point] |
| CCOC(=O)N1CCC(N(CCOC)C(=O)Nc2ccc(C)c(C)c2)CC1 | -0.71 | – | – |
| c1ccc(CCCc2nc(-c3cccnc3)no2)cc1 | -18.8 | – | – |
| COc1ccc(C(=O)CSc2nnc(-c3cc(C)on3)o2)cc1 | -44.1 | – | 29.1 µM [falling, single point] |
| NC(=O)C1CCN(C2CC(=O)N(Cc3ccc(N4CCCC4=O)cc3)C2=O)CC1 (stereo not given) | 1.77 | 18.4 µM [falling, partial curve] | 0.146 µM [falling, full curve, poor fit] |
| CC1(C)N=C(/C=N/O)C=[N+]1[O-] | – | 5.8 µM [falling, full curve] | – |

| SMILES | cell number change [%] | AC50 [1] | AC50 [2] |
| --- | --- | --- | --- |
| Cc1ccccc1-n1nc(-c2cccnc2)cc1C(=O)NN | 22.6 | 0.651 µM [rising, full curve, poor fit] | – |
| O=C(CNc1ccc(Br)cc1)Nc1cccc(S(=O)(=O)N2CCCC2)c1 | 5.76 | 0.651 µM [falling, full curve, poor fit] | 7.31 µM [falling, single point] |
| OC(COc1ccc2c(c1)OCO2)CN1CCN(c2ccccc2)CC1 (stereo not given) | 20.5 | – | – |
| O=C(COc1ccc2ccccc2c1)N1CCN(c2ccccc2O)CC1 | -31.4 | – | 18.4 µM [falling, partial curve, poor fit] |
| COc1ccc(C(=O)c2ccc(CC#N)s2)cc1 | 3.77 | 29.1 µM [rising, single point] | – |
| CC1(C)CC2(CCCN3C(=O)CSC32)CCS1 (stereo not given) | 44 | 29.1 µM [rising, single point] | 29.1 µM [rising, single point] |
| CC(=O)c1ccc(N2CCN(C(=O)C3CCCN3S(=O)(=O)c3cccc4nsnc34)CC2)cc1 (stereo not given) | -27.4 | 6.51 µM [rising, single point] | – |
| Cc1cc(OCC(=O)N(C)C2CCCCC2)cc(C)c1Cl | -25 | – | – |
| COc1ccc(C(=O)NC(=S)Nc2ccc(S(=O)(=O)Nc3cc(OC)nc(OC)n3)cc2)cc1 | -7.98 | 0.103 µM [rising, partial curve, poor fit] | – |
| COc1ccc(/C=N/NC(=O)c2cccc(NC(=O)c3ccc(Cl)cc3)c2)c(OC)c1 | -34.5 | 1.84 µM [rising, full curve] | 16.4 µM [falling, single point] |
| Cc1c(NS(=O)(=O)c2ccc3c(c2)n(C)c(=O)n3C)c(=O)n(-c2ccccc2)n1C | 2.82 | 0.116 µM [falling, single point] | – |
| N#C/C(=N\Nc1ccc(F)cc1)C(=N)N1CCCCC1 | 54.8 | 4.61 µM [rising, single point] | 9.2 µM [rising, partial curve] |
| CCOc1ccc(C2=Nn3c(nnc3-c3ccco3)SC2)cc1 | -20 | 1.84 µM [falling, full curve] | 2.91 µM [falling, partial curve] |
| Cc1c(C(=O)N(Cc2nnc(-c3ccccc3Cl)o2)C2CC2)oc2ccccc12 | -32.4 | – | 16.4 µM [falling, single point] |
| O=c1c(-c2nnc(SCc3ccc(Cl)cc3Cl)o2)cccn1Cc1ccccc1 | 25.6 | – | – |
| Cc1ccc(C)c(/C(O)=C2/C(=O)C(=O)N(CCN3CCOCC3)C2c2ccco2)c1 (stereo not given) | 11.2 | 6.51 µM [rising, partial curve, poor fit] | – |
| COc1ccc(N=Cc2c(O)[nH]c3ccccc23)cc1 | -20.1 | 25.9 µM [falling, partial curve, poor fit] | – |
| CC(=O)c1ccccc1NC(=O)CSc1nnc2ccccn12 | – | 5.17 µM [rising, single point] | 1.84 µM [rising, partial curve] |
| Cc1ccc(C)c(OCC(=O)O/N=C(\N)c2cccnc2)c1 | – | – | 2.31 µM [rising, partial curve] |
| COc1cc(NC(=S)NC(=O)c2ccccc2C)ccc1NC(=O)c1cccs1 | – | 0.92 µM [rising, full curve] | 0.92 µM [rising, full curve] |
| O=C(Nc1ccnn1C1CCN(C/C=C/c2ccccc2)CC1)c1cccc(F)c1 | -1.52 | 14.6 µM [rising, single point] | – |
| Cc1cccc(/C=N/NC(=O)c2ccc(F)cc2)n1 | 19 | 6.51 µM [falling, single point] | – |

| SMILES | cell number change [%] | AC50 [1] | AC50 [2] |
| --- | --- | --- | --- |
| O=C(O)CCCC(=O)Nc1ccc(Br)cc1 | 3.84 | – | – |
| Cn1nc(CC(=O)N2CCN(c3ccccc3)CC2)c2ccccc2c1=O | -17.6 | 20.6 µM [falling, single point] | – |
| Cc1cccc(NC(=O)CNC(=O)c2cc(C3CC3)nn2-c2ccccc2)c1C | -45.6 | – | 29.1 µM [falling, single point] |
| Cc1ccc(NS(=O)(=O)c2ccc3c(c2)NC(=O)C(C)C(=O)N3)c(Cl)c1 (stereo not given) | 8.93 | – | – |
| COc1ccccc1N(C)S(=O)(=O)c1ccc(C(=O)N2CCC(C(N)=O)CC2)cc1 | 36.5 | – | 13 µM [rising, partial curve] |
| Cc1nc2c(-c3ccccc3)c(C)[nH]n2c(=O)c1Cc1ccccc1 | -19.4 | 18.4 µM [falling, single point] | – |
| CCOC(=O)C1=NNC2C(=O)N(CC)C(=O)C12 (stereo not given) | – | 16.4 µM [falling, partial curve] | – |
| O=C1CCCC2=C1C(c1ccccc1)CC(=O)N2c1ccccc1 (stereo not given) | -12.1 | 18.4 µM [falling, single point] | – |
| COCCN(C(=O)C(C)C)c1nnc(-c2cccc(C)c2)s1 | -32.3 | – | 0.92 µM [falling, full curve, poor fit] |
| CCC(=Nc1ccc(Cc2ccncc2)cc1)c1c(O)n(C)c(=O)n(C)c1=O | – | 29.1 µM [rising, partial curve] | 5.17 µM [rising, single point] |
| Nc1nc(-c2ccc(Cl)cc2)cc(C(F)(F)F)n1 | – | 6.51 µM [rising, single point] | – |
| O=C(COc1ccccc1)NC1CCN(Cc2ccccc2)CC1 | -13.4 | – | – |
| CSC1=C(C#N)C2(CCCC2)C(C#N)=C(N)N1 | -4.15 | 0.00731 µM [rising, full curve, poor fit] | – |
| COc1ccc(-n2c(SCC(=O)Nc3ccccc3C)nc(O)c(Cc3ccccc3)c2=O)cc1 | -16.7 | 1.46 µM [rising, full curve] | – |
| COc1ccc(-c2nn(-c3ccccc3)cc2C(=O)NC2CC2)cc1 | -9.09 | 36.6 µM [rising, partial curve, poor fit] | – |
| CCOc1ccc2c(C)c(Cl)c(=O)oc2c1 | 97.9 | – | 13 µM [rising, partial curve] |
| O=C(CSc1ncnc2c1cnn2-c1ccccc1Cl)N1CCN(C(=O)c2ccco2)CC1 | -12.6 | – | – |
| CCOc1cc(C(=S)N2CCOCC2)ccc1OC(=O)/C=C/c1ccc(OC)c(OC)c1 | -14.9 | 0.146 µM [rising, partial curve] | – |
| Cc1cc(C)c(S(=O)(=O)c2cccc(Cl)c2)c(=O)[nH]1 | -5.01 | 0.82 µM [falling, full curve, poor fit] | – |
| O=C(c1cccn2c(=O)c3cc(Cl)ccc3nc12)N1CCN(Cc2ccc3c(c2)OCO3)CC1 | – | 6.51 µM [rising, single point] | – |

Nothing new here: an excerpt of the list.

| SMILES | cell number change [%] | AC50 [1] | AC50 [2] |
| --- | --- | --- | --- |
| COCCN(C(=O)C(C)C)c1nnc(-c2cccc(C)c2)s1 | -32.3 | – | 0.92 µM [falling, full curve, poor fit] |
| CCC(=Nc1ccc(Cc2ccncc2)cc1)c1c(O)n(C)c(=O)n(C)c1=O | – | 29.1 µM [rising, partial curve] | 5.17 µM [rising, single point] |

From PubChem BioAssay AID2685 (National Center for Advancing Translational Sciences (NCATS), 2010)
